Results are given in words; binding and its absence hold for the method and conditions named.
What was measured:
[1] = target: SVP2 (Arabidopsis thaliana); experiment: two-hybrid; matrix-based yeast two-hybrid, GAL4-AD and GAL4-BD fusions (pDEST22, pDEST32), in duplicate, at least two reporter genes; medium lacking Leu, Trp and His with 1 mM 3-amino-1,2,4-triazole, growth scored after 4 days at 20°C
[2] = target: ABSIi (Arabidopsis thaliana); experiment: as above

B1: AGAMOUS-LIKE24 (protein, UniProt O82794 1-220)
chain: MAREKIRIKKIDNITARQVTFSKRRRGIFKKADELSVLCDADVALIIFSATGKLFEFSSSRMRDILGRYSLHASNINKLMDPPSTHLRLENCNLSRLSKEVEDKTKQLRKLRGEDLDGLNLEELQRLEKLLESGLSRVSEKKGECVMSQIFSLEKRGSELVDENKRLRDKLETLERAKLTTLKEALETESVTTNVSSYDSGTPLEDDSDTSLKLGLPSWE
- binding [1]: no binding
- binding [2]: no binding

B2: AGL24 R61S (protein, UniProt O82794 1-220)
chain: MAREKIRIKKIDNITARQVTFSKRRRGIFKKADELSVLCDADVALIIFSATGKLFEFSSSSMRDILGRYSLHASNINKLMDPPSTHLRLENCNLSRLSKEVEDKTKQLRKLRGEDLDGLNLEELQRLEKLLESGLSRVSEKKGECVMSQIFSLEKRGSELVDENKRLRDKLETLERAKLTTLKEALETESVTTNVSSYDSGTPLEDDSDTSLKLGLPSWE
- binding [1]: no binding
- binding [2]: no binding
